Reference: paper PMC9761964
Results are given in words; binding and its absence hold for the method and conditions named. Binding seen in cells or lysates may run through a third protein. Some entries that bind do so weakly or less than the wild type.

The chains behind the UniProt entries cited, without tags or fusion partners.
UniProt P20719: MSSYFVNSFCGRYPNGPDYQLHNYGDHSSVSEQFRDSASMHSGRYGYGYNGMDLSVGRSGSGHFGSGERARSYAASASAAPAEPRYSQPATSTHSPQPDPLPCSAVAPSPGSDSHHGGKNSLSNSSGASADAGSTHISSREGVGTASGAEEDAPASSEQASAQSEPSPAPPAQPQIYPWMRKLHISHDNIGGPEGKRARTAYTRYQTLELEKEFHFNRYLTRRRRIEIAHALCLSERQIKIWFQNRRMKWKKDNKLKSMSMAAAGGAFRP
UniProt Q9UJW3: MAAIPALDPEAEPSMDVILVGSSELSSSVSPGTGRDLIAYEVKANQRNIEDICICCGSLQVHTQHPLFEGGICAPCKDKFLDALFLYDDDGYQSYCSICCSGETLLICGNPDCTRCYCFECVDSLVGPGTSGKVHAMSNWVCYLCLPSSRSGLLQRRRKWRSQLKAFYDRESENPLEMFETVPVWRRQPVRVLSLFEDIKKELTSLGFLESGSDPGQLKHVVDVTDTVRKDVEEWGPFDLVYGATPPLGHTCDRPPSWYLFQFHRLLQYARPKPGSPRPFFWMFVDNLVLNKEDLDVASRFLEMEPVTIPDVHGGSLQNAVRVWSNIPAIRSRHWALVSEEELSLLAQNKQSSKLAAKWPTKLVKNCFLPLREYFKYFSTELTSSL

Target: Flag-HOXA5 (UniProt P20719)
Assay: co-IP; immunoprecipitation with Flag antibody in Flag-HOXA5 overexpression 769P cells; non-specific IgG as negative control; partners detected by blot

DNMT3L (from UniProt Q9UJW3 1-386)
binding: binds
